Data: paper PMC9092470, “Understanding p300-transcription factor interactions using sequence variation and hybridization†” (RSC Chemical Biology, 2022)
These are yes or no findings as the source states them, for the method shown. Some entries that bind do so weakly or less than the wild type. For some assays here: Tags and fused reporters may be left off the sequences shown.

By UniProt entry, the sequences of proteins in these tests, tags left out. Residues count along the entry.
UniProt Q09472, residues 330-420: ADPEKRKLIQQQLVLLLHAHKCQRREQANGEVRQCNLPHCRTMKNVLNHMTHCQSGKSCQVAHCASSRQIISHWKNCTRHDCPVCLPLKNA

Key:
[1] = biological target: p300 CH1 domain (residues 330-420), GST removed with PreScission protease (human) (UniProt Q09472); assay: fluorescence polarisation; direct fluorescence anisotropy titration; 50 nM GFP or GFP-HIF-1α as fluorescent species, GST-p300 or p300 in a two-fold dilution series starting from 10 µM; 25 mM Tris-HCl, 150 mM NaCl, 1 mM DTT, pH 7.4; 27 °C ± 1 °C; technical triplicates; both purified
[2] = biological target: GST-p300 (GST-tagged p300 CH1 domain, residues 330-420) (human) (UniProt Q09472); assay: fluorescence polarisation; fluorescence anisotropy competition; 5 nM FAM-HIF786-826 as tracer, two-fold dilution series of the competitor from 10 µM over 24 points; 25 mM Tris-HCl, 150 mM NaCl, 1 mM DTT, pH 7.4; concentration of p300 not stated; both purified
[3] = biological target: p300 CH1 domain (residues 330-420), GST removed with thrombin (human) (UniProt Q09472); assay: ITC; competition ITC, apparent constants; CITED2224-259 (50 µM) titrated to 4.5 µM p300 saturated beforehand with 5.5 µM HIF-1α786-826; competition model with KD and ΔH of HIF-1α786-826 fixed; 40 mM sodium phosphate, pH 7.5, 100 mM NaCl, 1 mM DTT; 35 °C; Microcal VP ITC; both purified
[4] = biological target: p300 CH1 domain (residues 330-420), GST removed with thrombin (human) (UniProt Q09472); assay: ITC; competition ITC, apparent constants; HIF-1α776-826 (50 µM) titrated to 5 µM p300 saturated beforehand with 5.8 µM CITED2216-269; competition model with KD and ΔH of CITED2 fixed; 40 mM sodium phosphate, pH 7.5, 100 mM NaCl, 1 mM DTT; 35 °C; Microcal VP ITC; both purified
[5] = biological target: p300 CH1 domain (residues 330-420), GST removed with thrombin (human) (UniProt Q09472); assay: ITC; competition ITC, apparent constants; HIF-1α786-826 (50 µM) titrated to 4.4 µM p300 saturated beforehand with 5.9 µM CITED2224-259; competition model with KD and ΔH of CITED2224-259 fixed; 40 mM sodium phosphate, pH 7.5, 100 mM NaCl, 1 mM DTT; 35 °C; Microcal VP ITC; both purified

B1: GFP-HIF-1α776-826 (His10-GFP fusion of the HIF-1α C-TAD, wild type) (domain or fragment)
chain: SDLACRLLGQSMDESGLPQLTSYDCEVNAPIQGSRNLLQGEELLRALDQVN
[1]
  binding: binds

B2: FAM-HIF786-826 (fluorescent tracer) (peptide)
peptide: SMDESGLPQLTSYDCEVNAPIQGSRNLLQGEELLRALDQVN
modifications: FAM label (position not given)
[2]
  binding: binds

B3: HIF-1α786-826 (synthetic) (peptide)
peptide: B2 peptide
modifications: N-terminal acetyl (Ac-); C-terminal amide (-NH2)
[3]
  binding: binds

B4: CITED2216-269 (synthetic) (peptide)
peptide: NVIDTDFIDEEVLMSLVIEMGLDRIKELPELWLGQNEFDFMTDFVCKQQPSRVS
modifications: N-terminal acetyl (Ac-); C-terminal amide (-NH2)
[4]
  binding: binds

B5: CITED2224-259 (synthetic) (peptide)
peptide: DEEVLMSLVIEMGLDRIKELPELWLGQNEFDFMTDF
modifications: N-terminal acetyl (Ac-); C-terminal amide (-NH2)
[5]
  binding: binds
